Experimental data from PubChem BioAssay AID540256 (National Center for Advancing Translational Sciences (NCATS), 2011).
Screen size: about 300,000 compounds; about 3,700 (1.2%) were called active. Inconclusive results, whose numbers are uncertain, are shown with a selection of clear calls. Calls follow the shape of the full dose curve; tested in HEK293 cells. A potency beside an inconclusive call is a rough fit, not a confirmed value.

Experiment: qHTS for Inhibitors of binding or entry into cells for Lassa Virus; also: nearly all actives have a fitted effect of over 50% in size
Conditions: Lassa virus pseudotype entry inhibition, cell reporter; series mostly up to 37.9 µM
Potency is read from the fitted curve at half-maximal effect.

Row | Compound | Potency
1 | Cc1ccc(C(=O)O/N=C/c2c(N3CCOCC3)n(C)c3ccccc23)cc1 | inconclusive: 29.1 µM [inhibitor, single point]
2 | CCOc1cc(CNCCCN2CCOCC2)ccc1OCC(=O)Nc1cccc2ccccc12 | active: 14.6 µM
3 | COc1cc(/C=N\NC(=O)C(C)(C)O)ccc1OC/C=C/c1ccccc1 | inconclusive: 20 µM [inhibitor, partial curve, poor fit]
4 | c1ccc2oc(-c3csc(NCC4CCCO4)n3)cc2c1 (centres undefined) | inconclusive: 25.1 µM [inhibitor, single point]
5 | O=c1c2ccccc2c(/C=N/c2ncn[nH]2)c(O)n1Cc1ccccc1 | inactive
6 | N#CC1=C(N)Oc2cc(N)ccc2C1c1cc(Br)cs1 (centres undefined) | inconclusive: 3.16 µM [inhibitor, single point]
7 | CCN(CC)c1ccc(/C=N/NC(=O)OC)c(O)c1 | inconclusive: 22.4 µM [inhibitor, single point]
8 | CCCn1nnnc1NCc1ccc(N(C)C)cc1 | inactive
9 | O=C(NC1CCN(C(=S)NCc2ccco2)CC1)C12CC3CC(CC(C3)C1)C2 | inconclusive: 0.82 µM [inhibitor, full curve]
10 | CC1CC(C)CN(C(=O)c2cc(-c3ccncc3)nc3ccccc23)C1 (centres undefined) | inactive
11 | Cc1cc(C(=O)C(=O)O)c(C)n1-c1ccc(Cl)cc1 | inactive
12 | CCc1ccc(CNC(=O)c2ccc(NC(=O)N3CCSc4ncccc43)cc2)cc1 | inactive
13 | COc1ccc(C(=O)NCc2nnc(SCC(=O)Nc3ccc(C)cc3)n2-c2ccccc2)cc1 | inconclusive: 1.41 µM [inhibitor, partial curve, poor fit]
14 | O=c1cc(CN2CCCC2)c2c(ccc3ccccc32)o1 | inactive
15 | COc1ccc(-c2csc(NC(=O)c3ccc(OCC(=O)N4CCOCC4)c(OC)c3)n2)cc1 | inconclusive: 1.84 µM [inhibitor, single point]
16 | O=C(CN1C(=O)NC2(CCCCC2)C1=O)NCCc1ccc(Cl)cc1Cl | inactive
17 | CCOC(=O)c1ccc2nc(NC(=O)c3ccco3)sc2c1 | inconclusive: 12.6 µM [inhibitor, single point]
18 | C=C[C@@H]1C[C@@]1(C)[C@@H](NP(=O)(c1ccccc1)c1ccccc1)c1ccccc1 | inconclusive: 0.82 µM [inhibitor, full curve, poor fit]
19 | O=C(Nc1cccnc1)c1cccs1 | inconclusive: 8.2 µM [inhibitor, partial curve]
20 | CCCC1(C(=O)OC)NC(c2ccc(OC)c(OC)c2)C2C(=O)N(c3cccc(C(C)=O)c3)C(=O)C21 (centres undefined) | inactive
21 | Cc1ccc(SCC(=O)Nc2ccc3oc(-c4ccc(F)cc4)nc3c2)cc1 | inactive
22 | COc1ccc(/C=N/OCC(=O)NC(c2ccccc2)c2ccccc2)c(OC)c1 | active: 2.24 µM
23 | Brc1ccc(-c2nc(N3CCN(c4ccccc4)CC3)c3ccccc3n2)cc1 | inconclusive: 6.31 µM [activator, single point]

An excerpt of these results, with tabs.
Row	Compound	Potency
5	O=c1c2ccccc2c(/C=N/c2ncn[nH]2)c(O)n1Cc1ccccc1	inactive
13	COc1ccc(C(=O)NCc2nnc(SCC(=O)Nc3ccc(C)cc3)n2-c2ccccc2)cc1	inconclusive: 1.41 µM [inhibitor, partial curve, poor fit]
17	CCOC(=O)c1ccc2nc(NC(=O)c3ccco3)sc2c1	inconclusive: 12.6 µM [inhibitor, single point]

Following part:

Row | Compound | Potency
24 | O=C(COC(=O)c1ccccc1Nc1ccccc1)NCc1ccco1 | inactive
25 | O=C(NCc1cccs1)c1csc2c1CCCCC2 | inactive
26 | CC(=O)NCCc1c[nH]c2ccc(O)cc12 | inconclusive: 0.0052 µM [inhibitor, full curve, poor fit]
27 | CC1CCN(c2nn3c(=O)c(C(=O)NCCc4ccc(Cl)cc4)cnc3s2)CC1 | inactive
28 | Cc1c(C(=O)N2CCCC2)sc(NC(=O)c2ccc(Cl)cc2)c1C#N | inactive
29 | O=C(N1CCN(Cc2ccccc2)CC1)C12CC3CC(CC(C3)C1)C2 | inconclusive: 35.5 µM [inhibitor, single point]
30 | O=C(NC(=S)NCC1CCCO1)c1ccccc1Br (centres undefined) | inactive
31 | C=CCN(c1ccc(C(=O)NC(C)C)cc1)S(C)(=O)=O | inactive
32 | CC1(C)CCc2cc(-c3ccnc(=S)[nH]3)ccc2O1 | inconclusive: 35.5 µM [inhibitor, single point]
33 | CCCc1[nH]nc2c1C(c1ccc(OCCN3CCOCC3)c(OC)c1)C(C#N)=C(N)O2 (centres undefined) | inconclusive: 35.5 µM [activator, single point]
34 | O=C(CN1C(=O)COc2ccc(S(=O)(=O)N3CCCC3)cc21)NCCc1ccc(Cl)cc1 | inactive
35 | CCN1CCn2c3c(c4cc(Cl)ccc42)CCCC31 (centres undefined) | inactive
36 | C=CCn1c(C)cc(C(=O)CSc2nc3ccccc3c(=O)[nH]2)c1C | inconclusive: 14.1 µM [inhibitor, single point]
37 | CC(NC(=O)/C=C/c1cnc2ccccc2n1)C12CC3CC(CC(C3)C1)C2 (centres undefined) | inconclusive: 15.8 µM [inhibitor, partial curve, poor fit]
38 | Oc1ccccc1-c1nc(/C=C/c2ccccc2)nn1-c1ccccc1 | inactive
39 | Cc1ccc(OCCNc2cc(N3CCN(CCO)CC3)ccc2[N+](=O)[O-])cc1C | inconclusive: 25.9 µM [inhibitor, single point]
40 | OCC1OC(n2ccc3c(NO)ncnc32)C(O)C1O (centres undefined) | inconclusive: 0.355 µM [inhibitor, full curve, poor fit]
41 | Cc1cccc(C(=O)N2CCN(c3ncnc4c3cnn4-c3ccccc3)CC2)c1 | inconclusive: 35.5 µM [inhibitor, single point]
42 | Cc1nc(-n2nc(C)c(CCC(C)C)c2C)sc1C(=O)Nc1cccc(Cl)c1C | inconclusive: 3.55 µM [activator, single point]
43 | Cc1ccccc1NC(=O)c1onc2c1CCCC2 | inconclusive: 3.16 µM [activator, single point]
44 | CNC(=O)CSc1nnc(SCCC(=O)O)s1 | inactive
45 | CCN(CC)C(=O)COC(=O)c1cc(-c2ccc(OC)cc2)nc2ccccc12 | inconclusive: 16.4 µM [inhibitor, partial curve, poor fit]
46 | COc1cc(C(=O)OCC(=O)N2CCCCC2C)cc(NC(=O)c2cccs2)c1OC (centres undefined) | inconclusive: 6.31 µM [inhibitor, partial curve, poor fit]

Row | Compound | Potency
47 | COc1ccc(-c2cc(C(F)(F)F)nc(NCc3cccs3)n2)cc1 | inconclusive: 1 µM [inhibitor, partial curve, poor fit]
48 | N#Cc1cccc(Nc2ncc(-c3ccccc3)o2)c1 | inconclusive: 0.315 µM [activator, full curve, poor fit]
49 | CCN1CCN(c2ccc(S(=O)(=O)N3CCCCC3)cc2NC(=O)CC(C)c2ccccc2)CC1 (centres undefined) | inconclusive: 2.82 µM [inhibitor, partial curve, poor fit]
50 | O=C(OCc1ccco1)c1ccc2c(c1)N(Cc1ccc([N+](=O)[O-])cc1)C(=O)c1ccccc1S2 | inactive
51 | O=C1OC(/C=C/c2ccccc2)=NC/1=C\c1cccnc1 | inconclusive: 3.55 µM [activator, full curve]
52 | OCCC1CN(Cc2ccccc2O)CCN1CCc1ccccc1 (centres undefined) | inconclusive: 3.55 µM [activator, single point]
53 | O=C(COC(=O)c1cccs1)NCc1ccc2c(c1)OCO2 | inconclusive: 5.62 µM [activator, full curve, poor fit]
54 | Cc1ccc(NC(=O)NC(=O)CN2C(=O)NC3(CCCCCCC3)C2=O)c(C)c1 | inactive
55 | O=C(C1CCC(CNS(=O)(=O)c2cccs2)CC1)N1CCN(c2ccc(Cl)cc2)CC1 (centres undefined) | inconclusive: 7.08 µM [inhibitor, partial curve, poor fit]
56 | CN(C)c1ccc(CNc2ncnc3sccc23)cc1 | active: 3.55 µM
57 | COc1ccc(CCNC(=O)Cn2c(=O)nc(-c3ccccc3F)c3cc(Cl)ccc32)cc1OC | inconclusive: 11.2 µM [inhibitor, single point]
58 | O=C(NN/C(=N/S(=O)(=O)c1ccc(Cl)cc1)c1ccccc1)c1ccc(O)cc1 | inconclusive: 2.31 µM [inhibitor, partial curve, poor fit]
59 | COC(=O)c1cc(C)nc2c1c(=O)nc(SCc1cccc(C(F)(F)F)c1)n2C1CC1 | inactive
60 | COc1ccc(Cl)cc1NC(=O)COC(=O)CC(C)(C)CC1=NS(=O)(=O)c2ccccc2N1 | inconclusive: 35.5 µM [inhibitor, single point]
61 | COc1ccccc1CNC(=O)C(=O)NCCC1CCCCN1S(=O)(=O)c1ccc(C)cc1 (centres undefined) | inconclusive: 35.5 µM [inhibitor, single point]
62 | COCCCN1C(=O)c2[nH]nc(-c3ccccc3O)c2C1c1ccc(OC)cc1 (centres undefined) | inconclusive: 1.26 µM [inhibitor, full curve, poor fit]
63 | CCOP(=O)(OCC)c1nc(-c2cccc3ccccc23)oc1N1CCOCC1 | inconclusive: 28.2 µM [inhibitor, single point]
64 | CC(C)c1ccc(NC(=O)c2cc(S(=O)(=O)NC3CCCCC3)ccc2F)cc1 | inconclusive: 39.8 µM [inhibitor, partial curve, poor fit]
65 | CC(=O)Nc1nonc1NC(=O)c1ccc(C(C)(C)C)cc1 | inconclusive: 0.164 µM [activator, full curve, poor fit]
66 | CC(=O)Oc1ccc(C2=Cc3ccc(OC(C)=O)cc3OC2C)cc1 (centres undefined) | active: 6.31 µM
67 | Cc1cccc(Cn2c(SCc3ccc(C(=O)NCc4cccs4)cc3)nc3cccnc32)c1 | inconclusive: 35.5 µM [inhibitor, single point]
68 | O=c1cc2nc(-c3ccccc3F)nc(SCc3ccc(Br)cc3)n2[nH]1 | inconclusive: 11.2 µM [inhibitor, single point]
69 | COc1ccc(-c2cc(C(=O)N3CCN(c4ccccc4O)CC3)c3ccccc3n2)cc1OC | inconclusive: 10 µM [inhibitor, partial curve, poor fit]
